Measurements from patent US10011598B2, “Small molecules targeting repeat r(CGG) sequences” (THE SCRIPPS RESEARCH INSTITUTE, priority 2012, dated 2018).
Some results were stated once for a whole list of compounds, not compound by compound.

Target: r(CGG)12-DGCR8Δ complex
Assay: TR-FRET protein displacement assay
Assay type: biochemical
Conditions: read-out: IC50 for disruption of r(CGG)12-DGCR8Δ complex / inhibition of protein binding

**Q.** How did the IC50 turn out when Cc1c2cc[n+](C)cc2c(C)c2c1[nH]c1ccc(O)cc12 [1d, elliptinium] was run?
**A.** 5 to 12 µM
